Source: PubChem BioAssay AID1688 (National Center for Advancing Translational Sciences (NCATS), 2009)
About 2,400 (1.1%) of roughly 220,000 compounds were called active. These results got no clear call from the source, so the numbers are uncertain. The call rests on the fitted dose curve; in most records, active means well fitted inhibition curve with a large enough effect; inconclusive means small, poorly fitted or top-dose-only effect, or effect the other way; inactive means no such curve, though single readings can be large or run the other way.
Potency means the concentration at half of the fitted maximal effect.

Test: qHTS Multiplex Assay to Identify Dual Action Probes in a Cell Model of Huntington: Aggregate Formation (GFP); further: nearly all actives have a fitted effect of over 60% in size
Conditions: PC12 HttQ103-GFP aggregates, Acumen cytometry, 40 h
In the case of `CN(C)C(=O)c1c([N+](=O)[O-])cc([N+](=O)[O-])cc1[N+](=O)[O-]`, the Potency is reported as inconclusive: 35.5 µM.
For `O=C(OCCCN1CCCC1)C(O)(c1ccccc1)C1CCCCC1` (stereo unspecified), the Potency was inconclusive: 5.62 µM.
For `Cc1nc2ccc3ccccc3c2o1.O=[N+]([O-])c1cc([N+](=O)[O-])c(O)c([N+](=O)[O-])c1`, the Potency was inconclusive: 35.5 µM.
With `COc1ccc(OP(C)(=O)Nc2ccccn2)cc1` (stereo unspecified) the Potency was inconclusive: 1.26 µM.
In the case of `CC(C)(C)c1ccc(OP(C)(=O)Nc2ccc(SC(F)(F)F)cc2)cc1` (stereo unspecified), the Potency is reported as inconclusive: 39.8 µM.
With `O=[N+]([O-])c1ccc2c(c1)C=Nc1ccccc1O2` the Potency was inconclusive: 11.2 µM.
